The list shows a part of the results.
Compound: CS(=O)(=O)CCNCc1ccc(-c2ccc3ncnc(Nc4ccc(OCc5cccc(F)c5)c(Cl)c4)c3c2)o1 [lapatinib]
Experiment: log2 fold change, soluble protein after heating vs DMSO (PISA); higher = thermal stabilisation; K562 lysate, 10 uM; active = over 0.2 and 3.5 SD of the protein, either way, in both replicates (recomputed)
How it was run: (§1)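 To prepare the extract, K562 pellets were dounce-homogenised in PBS pH 7.4 with 1 mM MgCl2, giving crude material at 1 mg/mL protein. This was treated with 10 μM compound for 30 min, then heated in aliquots for 3 min over 48°C-58°C before pooling and addition of NP-40 to 0.5% at 4°C. Centrifugation at 21,000xg for 90 min left soluble protein in the supernatant, which TMTpro 16plex LC-MS/MS quantified with equalised channel sums. Results are log-two fold changes in thermal stability compared with solvent controls, from duplicates.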

Chains of the proteins cited; added tags and fusions are not shown. Lines headed by an entry give the natural chain unless they say otherwise; changes in a name come on top.
UniProt Q8N0X4: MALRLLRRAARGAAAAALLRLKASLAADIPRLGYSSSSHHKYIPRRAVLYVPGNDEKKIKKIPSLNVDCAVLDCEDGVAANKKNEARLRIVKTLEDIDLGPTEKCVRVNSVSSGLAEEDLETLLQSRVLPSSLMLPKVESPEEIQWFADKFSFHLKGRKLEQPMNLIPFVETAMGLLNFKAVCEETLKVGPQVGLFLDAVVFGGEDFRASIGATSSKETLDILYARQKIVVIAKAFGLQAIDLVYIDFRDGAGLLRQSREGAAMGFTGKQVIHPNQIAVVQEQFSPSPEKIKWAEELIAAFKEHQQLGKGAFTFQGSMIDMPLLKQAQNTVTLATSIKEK
UniProt Q9NY35: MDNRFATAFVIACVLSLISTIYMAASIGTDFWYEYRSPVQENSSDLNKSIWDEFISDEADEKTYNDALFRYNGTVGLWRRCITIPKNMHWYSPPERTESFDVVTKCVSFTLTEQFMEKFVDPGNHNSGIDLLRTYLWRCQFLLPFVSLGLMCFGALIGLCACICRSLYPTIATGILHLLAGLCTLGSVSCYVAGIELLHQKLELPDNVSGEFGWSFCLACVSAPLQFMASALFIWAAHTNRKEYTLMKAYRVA
UniProt Q96AJ1: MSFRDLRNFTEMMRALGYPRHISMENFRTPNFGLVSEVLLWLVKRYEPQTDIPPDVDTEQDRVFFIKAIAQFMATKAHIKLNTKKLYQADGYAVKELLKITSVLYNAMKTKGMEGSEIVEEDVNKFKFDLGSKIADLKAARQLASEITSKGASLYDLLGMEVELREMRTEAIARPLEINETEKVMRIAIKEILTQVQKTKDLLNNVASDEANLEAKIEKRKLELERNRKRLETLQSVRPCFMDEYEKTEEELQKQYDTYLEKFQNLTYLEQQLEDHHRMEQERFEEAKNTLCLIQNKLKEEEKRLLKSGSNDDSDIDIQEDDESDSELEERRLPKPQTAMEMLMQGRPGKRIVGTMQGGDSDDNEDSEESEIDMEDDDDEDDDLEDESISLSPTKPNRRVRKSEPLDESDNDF
UniProt Q8IZR5: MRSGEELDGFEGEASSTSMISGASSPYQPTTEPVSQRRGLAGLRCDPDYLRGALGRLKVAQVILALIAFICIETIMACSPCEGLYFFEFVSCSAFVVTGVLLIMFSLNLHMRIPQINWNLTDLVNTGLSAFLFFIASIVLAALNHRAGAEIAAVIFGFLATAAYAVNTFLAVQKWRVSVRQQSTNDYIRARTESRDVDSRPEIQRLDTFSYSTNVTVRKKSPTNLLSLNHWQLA
UniProt Q96KA5: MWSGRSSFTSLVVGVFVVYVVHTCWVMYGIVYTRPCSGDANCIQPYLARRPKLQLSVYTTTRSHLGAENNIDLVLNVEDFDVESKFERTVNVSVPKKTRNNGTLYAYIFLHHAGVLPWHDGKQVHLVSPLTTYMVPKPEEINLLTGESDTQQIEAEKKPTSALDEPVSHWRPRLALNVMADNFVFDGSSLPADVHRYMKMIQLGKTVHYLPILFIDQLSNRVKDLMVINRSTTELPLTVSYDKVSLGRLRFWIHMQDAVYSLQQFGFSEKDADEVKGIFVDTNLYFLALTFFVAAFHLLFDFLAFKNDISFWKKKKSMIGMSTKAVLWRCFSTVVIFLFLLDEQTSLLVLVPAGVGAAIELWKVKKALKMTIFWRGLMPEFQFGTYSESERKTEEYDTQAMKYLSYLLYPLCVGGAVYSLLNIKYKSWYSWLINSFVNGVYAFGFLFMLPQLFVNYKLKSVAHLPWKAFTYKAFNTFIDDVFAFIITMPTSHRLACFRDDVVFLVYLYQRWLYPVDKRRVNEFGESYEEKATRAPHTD
UniProt P09496: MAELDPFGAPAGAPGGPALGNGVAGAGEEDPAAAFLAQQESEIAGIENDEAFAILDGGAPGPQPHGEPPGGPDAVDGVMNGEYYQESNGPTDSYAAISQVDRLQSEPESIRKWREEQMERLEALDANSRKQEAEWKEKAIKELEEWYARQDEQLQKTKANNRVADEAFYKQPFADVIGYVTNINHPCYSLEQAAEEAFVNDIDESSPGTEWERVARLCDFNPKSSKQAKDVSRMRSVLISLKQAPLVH
UniProt P56749: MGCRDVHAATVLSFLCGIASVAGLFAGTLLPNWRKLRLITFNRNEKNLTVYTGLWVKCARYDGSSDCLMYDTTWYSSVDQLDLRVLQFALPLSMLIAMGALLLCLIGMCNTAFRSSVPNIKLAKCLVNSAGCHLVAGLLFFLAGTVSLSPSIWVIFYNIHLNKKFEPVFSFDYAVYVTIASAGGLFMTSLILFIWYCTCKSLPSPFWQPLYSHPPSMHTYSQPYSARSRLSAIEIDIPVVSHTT
UniProt O75153: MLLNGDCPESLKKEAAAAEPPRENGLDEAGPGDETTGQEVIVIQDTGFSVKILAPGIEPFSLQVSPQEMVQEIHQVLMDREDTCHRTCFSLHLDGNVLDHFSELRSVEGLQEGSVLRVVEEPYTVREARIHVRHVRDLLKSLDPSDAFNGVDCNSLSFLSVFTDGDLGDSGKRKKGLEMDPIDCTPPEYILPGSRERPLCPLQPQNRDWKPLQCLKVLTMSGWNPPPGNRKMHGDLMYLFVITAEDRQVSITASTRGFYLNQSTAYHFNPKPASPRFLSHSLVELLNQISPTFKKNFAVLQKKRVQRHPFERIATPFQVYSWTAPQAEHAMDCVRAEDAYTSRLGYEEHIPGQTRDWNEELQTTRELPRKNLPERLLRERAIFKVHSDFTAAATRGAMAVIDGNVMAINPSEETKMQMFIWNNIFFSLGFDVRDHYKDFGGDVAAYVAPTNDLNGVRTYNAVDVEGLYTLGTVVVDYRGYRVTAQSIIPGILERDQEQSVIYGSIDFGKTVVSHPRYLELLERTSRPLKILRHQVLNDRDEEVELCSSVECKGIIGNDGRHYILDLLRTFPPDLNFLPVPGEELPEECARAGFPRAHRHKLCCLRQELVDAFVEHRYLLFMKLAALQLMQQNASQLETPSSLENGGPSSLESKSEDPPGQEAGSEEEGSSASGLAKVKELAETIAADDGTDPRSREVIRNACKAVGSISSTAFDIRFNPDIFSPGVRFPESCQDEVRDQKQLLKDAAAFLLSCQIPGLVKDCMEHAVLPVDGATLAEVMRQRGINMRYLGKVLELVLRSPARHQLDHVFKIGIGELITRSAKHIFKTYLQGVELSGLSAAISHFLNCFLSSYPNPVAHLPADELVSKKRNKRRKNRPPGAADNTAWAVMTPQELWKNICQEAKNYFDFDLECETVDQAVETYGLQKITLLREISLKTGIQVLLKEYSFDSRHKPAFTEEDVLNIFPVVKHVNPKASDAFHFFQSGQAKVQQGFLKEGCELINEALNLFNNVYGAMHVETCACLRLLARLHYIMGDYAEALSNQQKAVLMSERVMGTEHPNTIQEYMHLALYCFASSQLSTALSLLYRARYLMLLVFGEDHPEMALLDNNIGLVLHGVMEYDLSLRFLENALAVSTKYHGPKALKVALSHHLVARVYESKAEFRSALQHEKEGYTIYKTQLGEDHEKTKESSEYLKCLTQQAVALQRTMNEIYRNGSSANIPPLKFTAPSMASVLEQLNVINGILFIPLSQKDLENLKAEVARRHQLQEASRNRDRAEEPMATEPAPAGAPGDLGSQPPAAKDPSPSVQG
UniProt Q8N3C7: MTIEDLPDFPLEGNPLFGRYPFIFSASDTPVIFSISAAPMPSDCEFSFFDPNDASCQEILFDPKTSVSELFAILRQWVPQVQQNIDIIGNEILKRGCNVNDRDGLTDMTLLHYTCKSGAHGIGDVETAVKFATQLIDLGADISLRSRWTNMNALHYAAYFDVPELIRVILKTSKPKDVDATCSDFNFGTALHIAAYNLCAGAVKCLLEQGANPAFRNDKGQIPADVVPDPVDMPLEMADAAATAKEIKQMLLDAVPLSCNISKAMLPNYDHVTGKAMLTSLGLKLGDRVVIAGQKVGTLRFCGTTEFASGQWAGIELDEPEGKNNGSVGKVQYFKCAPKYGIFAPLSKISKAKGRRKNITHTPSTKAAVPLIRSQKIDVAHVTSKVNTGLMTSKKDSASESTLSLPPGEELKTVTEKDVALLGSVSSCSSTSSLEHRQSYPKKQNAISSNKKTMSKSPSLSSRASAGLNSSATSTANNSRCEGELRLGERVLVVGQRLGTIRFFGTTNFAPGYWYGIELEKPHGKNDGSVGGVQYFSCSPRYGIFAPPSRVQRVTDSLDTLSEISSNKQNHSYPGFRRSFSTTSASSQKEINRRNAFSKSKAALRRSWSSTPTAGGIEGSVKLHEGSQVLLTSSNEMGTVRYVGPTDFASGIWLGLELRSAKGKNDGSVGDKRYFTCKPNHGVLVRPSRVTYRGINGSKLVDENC
UniProt Q9UBR5: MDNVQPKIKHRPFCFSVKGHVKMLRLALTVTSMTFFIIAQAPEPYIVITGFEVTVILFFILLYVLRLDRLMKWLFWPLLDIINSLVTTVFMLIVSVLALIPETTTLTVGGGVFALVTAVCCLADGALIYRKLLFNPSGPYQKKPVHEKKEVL
UniProt Q9H078: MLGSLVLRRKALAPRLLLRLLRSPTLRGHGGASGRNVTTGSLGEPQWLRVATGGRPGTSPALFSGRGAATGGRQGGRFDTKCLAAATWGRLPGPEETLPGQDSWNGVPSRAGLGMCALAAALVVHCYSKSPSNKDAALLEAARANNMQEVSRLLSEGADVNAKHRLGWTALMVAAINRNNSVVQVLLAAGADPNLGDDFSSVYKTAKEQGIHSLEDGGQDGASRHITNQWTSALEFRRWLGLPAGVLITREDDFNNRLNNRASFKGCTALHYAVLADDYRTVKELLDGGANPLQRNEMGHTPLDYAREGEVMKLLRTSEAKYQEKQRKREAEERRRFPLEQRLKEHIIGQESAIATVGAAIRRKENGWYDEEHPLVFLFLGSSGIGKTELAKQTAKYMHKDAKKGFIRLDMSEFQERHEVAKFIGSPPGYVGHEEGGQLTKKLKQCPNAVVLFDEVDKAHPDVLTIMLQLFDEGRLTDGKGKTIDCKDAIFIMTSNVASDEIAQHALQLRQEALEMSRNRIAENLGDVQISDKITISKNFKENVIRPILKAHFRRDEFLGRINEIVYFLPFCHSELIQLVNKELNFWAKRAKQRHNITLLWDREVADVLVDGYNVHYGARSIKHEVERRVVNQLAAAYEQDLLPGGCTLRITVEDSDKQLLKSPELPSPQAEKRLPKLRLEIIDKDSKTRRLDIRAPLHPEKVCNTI
UniProt Q2KHT3: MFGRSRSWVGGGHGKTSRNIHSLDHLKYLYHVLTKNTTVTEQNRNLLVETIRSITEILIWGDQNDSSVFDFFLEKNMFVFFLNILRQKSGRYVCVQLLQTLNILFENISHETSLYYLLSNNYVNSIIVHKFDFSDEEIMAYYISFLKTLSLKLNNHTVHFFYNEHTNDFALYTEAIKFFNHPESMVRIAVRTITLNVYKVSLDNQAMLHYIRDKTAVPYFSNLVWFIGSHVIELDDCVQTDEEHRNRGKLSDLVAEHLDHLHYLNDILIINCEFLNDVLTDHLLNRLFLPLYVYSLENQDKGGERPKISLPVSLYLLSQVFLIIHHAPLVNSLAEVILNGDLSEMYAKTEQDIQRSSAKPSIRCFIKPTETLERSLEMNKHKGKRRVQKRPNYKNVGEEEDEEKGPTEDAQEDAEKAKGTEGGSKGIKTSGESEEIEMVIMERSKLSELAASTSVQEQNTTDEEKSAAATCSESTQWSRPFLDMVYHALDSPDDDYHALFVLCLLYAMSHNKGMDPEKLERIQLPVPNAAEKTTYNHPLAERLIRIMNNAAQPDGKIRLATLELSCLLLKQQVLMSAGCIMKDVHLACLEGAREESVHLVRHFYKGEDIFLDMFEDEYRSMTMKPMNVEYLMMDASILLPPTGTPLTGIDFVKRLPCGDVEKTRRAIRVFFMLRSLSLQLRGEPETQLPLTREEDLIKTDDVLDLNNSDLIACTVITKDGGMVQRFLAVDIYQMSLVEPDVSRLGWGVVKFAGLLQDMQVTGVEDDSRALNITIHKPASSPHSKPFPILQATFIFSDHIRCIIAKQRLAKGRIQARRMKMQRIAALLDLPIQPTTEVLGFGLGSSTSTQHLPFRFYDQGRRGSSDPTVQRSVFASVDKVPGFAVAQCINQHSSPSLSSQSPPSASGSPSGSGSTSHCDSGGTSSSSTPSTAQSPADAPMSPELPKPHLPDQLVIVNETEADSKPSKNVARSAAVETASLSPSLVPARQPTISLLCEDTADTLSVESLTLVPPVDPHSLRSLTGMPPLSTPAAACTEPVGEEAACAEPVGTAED
UniProt Q16740, whole entry, looked up: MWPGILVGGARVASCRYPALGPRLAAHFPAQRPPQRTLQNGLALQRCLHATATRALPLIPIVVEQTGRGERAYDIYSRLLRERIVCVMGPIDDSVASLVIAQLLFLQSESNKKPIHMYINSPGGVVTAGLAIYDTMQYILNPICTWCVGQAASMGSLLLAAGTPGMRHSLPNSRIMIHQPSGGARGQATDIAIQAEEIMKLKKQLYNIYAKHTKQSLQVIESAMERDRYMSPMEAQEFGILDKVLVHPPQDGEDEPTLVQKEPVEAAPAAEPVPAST
UniProt P0C7P0: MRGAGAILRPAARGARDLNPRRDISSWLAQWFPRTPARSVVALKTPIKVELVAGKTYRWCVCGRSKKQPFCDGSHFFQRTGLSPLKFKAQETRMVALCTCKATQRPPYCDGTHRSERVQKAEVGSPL

log2 fold change, inactive:
CLNS1A (UniProt P54105) -0.015, CLYBL (UniProt Q8N0X4) 0.07, CLASRP (UniProt Q8N2M8) 0.011, CHTF18 (UniProt Q8WVB6) 0, CLCC1 (UniProt Q96S66) -0.024, CLGN (UniProt O14967) 0.005, CLDND1 (UniProt Q9NY35) 0.001, CLUAP1 (UniProt Q96AJ1) -0.094, CLIC6 (UniProt Q96NY7) 0.135, CMTM4 (UniProt Q8IZR5) -0.159, CLPTM1L (UniProt Q96KA5) -0.095, CLTA (UniProt P09496) -0.015, CLDN12 (UniProt P56749) -0.093, CLUH (UniProt O75153) -0.014, CLIP4 (UniProt Q8N3C7) 0.035, CLK3 (UniProt P49761) -0.006, CLTB isoform 2 (UniProt P09497) -0.017, CKLF (UniProt Q9UBR5) -0.515, CLCN3 (UniProt P51790) 0.004, CIR1 (UniProt Q86X95) 0.05, CLSPN (UniProt Q9HAW4) 0.025, CLPX (UniProt O76031) 0.007, CLCN3 isoform 2 (UniProt P51790) 0.047, CLIC4 (UniProt Q9Y696) -0.011, CLPB isoform 2 (UniProt Q9H078) -0.034, CLEC16A (UniProt Q2KHT3) -0.008, CHFR (UniProt Q96EP1) -0.062, CLCN2 (UniProt P51788) 0.043, CLASP2 (UniProt O75122) 0.003, CLPTM1 (UniProt O96005) 0.034, CLPP (UniProt Q16740) 0.05, CLSTN1 (UniProt O94985) -0.496, CISD3 (UniProt P0C7P0) 0.05

Compound: C[C@@H](Oc1cc(-c2cnn(C3CCNCC3)c2)cnc1N)c1c(Cl)ccc(F)c1Cl [crizotinib]
Experiment: as above
How it was run: as §1

log2 fold change, inactive:
CLNS1A (UniProt P54105) 0.033, CLYBL (UniProt Q8N0X4) 0.199, CLASRP (UniProt Q8N2M8) -0.03, CHTF18 (UniProt Q8WVB6) -0.09, CLCC1 (UniProt Q96S66) 0.058, CLGN (UniProt O14967) -0.031, CLDND1 (UniProt Q9NY35) 0.063, CLUAP1 (UniProt Q96AJ1) 0.039, CLIC6 (UniProt Q96NY7) -0.056, CMTM4 (UniProt Q8IZR5) -0.009, CLPTM1L (UniProt Q96KA5) -0.021, CLTA (UniProt P09496) 0.117, CLDN12 (UniProt P56749) -0.077, CLUH (UniProt O75153) -0.057, CLIP4 (UniProt Q8N3C7) -0.047, CLK3 (UniProt P49761) -0.132, CLTB isoform 2 (UniProt P09497) 0.022, CKLF (UniProt Q9UBR5) 0.064, CLCN3 (UniProt P51790) 0.014, CIR1 (UniProt Q86X95) 0.061, CLSPN (UniProt Q9HAW4) -0.001, CLPX (UniProt O76031) -0.087, CLCN3 isoform 2 (UniProt P51790) -0.047, CLIC4 (UniProt Q9Y696) -0.024, CLPB isoform 2 (UniProt Q9H078) -0.03, CLEC16A (UniProt Q2KHT3) 0.003, CHFR (UniProt Q96EP1) -0.051, CLCN2 (UniProt P51788) -0.022, CLASP2 (UniProt O75122) 0.127, CLPTM1 (UniProt O96005) 0.005, CLPP (UniProt Q16740) 0.068, CLSTN1 (UniProt O94985) -0.005, CISD3 (UniProt P0C7P0) 0.026

Compound: C[C@H](C1=CC=C(C=C1)C(=O)NC2=C3C=CNC3=NC=C2)N
Experiment: as above
How it was run: as §1

log2 fold change, inactive:
CLNS1A (UniProt P54105) -0.017, CLYBL (UniProt Q8N0X4) 0.01, CLASRP (UniProt Q8N2M8) -0.036, CLCC1 (UniProt Q96S66) -0.072, CLGN (UniProt O14967) -0.088, CLDND1 (UniProt Q9NY35) 0.003, CLUAP1 (UniProt Q96AJ1) -0.268, CLIC6 (UniProt Q96NY7) -0.2, CMTM4 (UniProt Q8IZR5) -0.071, CLPTM1L (UniProt Q96KA5) -0.092, CLTA (UniProt P09496) 0.023, CLDN12 (UniProt P56749) 0.033, CLUH (UniProt O75153) -0.012, CLIP4 (UniProt Q8N3C7) -0.124, CLTB isoform 2 (UniProt P09497) -0.01, CKLF (UniProt Q9UBR5) 0.081, CLCN3 (UniProt P51790) -0.09, CLSPN (UniProt Q9HAW4) -0.023, CLPX (UniProt O76031) 0.005, CLCN3 isoform 2 (UniProt P51790) -0.075, CLIC4 (UniProt Q9Y696) -0.054, CLPB isoform 2 (UniProt Q9H078) 0.024, CLEC16A (UniProt Q2KHT3) 0.152, CLCN2 (UniProt P51788) -0.031, CLASP2 (UniProt O75122) -0.086, CLPTM1 (UniProt O96005) -0.07, CLPP (UniProt Q16740) 0.044, CLSTN1 (UniProt O94985) 0.186, CISD3 (UniProt P0C7P0) -0.027
